In PubChem BioAssay AID720504 (National Center for Advancing Translational Sciences (NCATS), 2013):
The campaign covered roughly 360,000 compounds. About 10,000 (2.8%) were called active. Inconclusive results, whose numbers are uncertain, are shown with a selection of clear calls. Calls follow the shape of the dose curve; as a rule, active = well fitted inhibition curve with a large enough effect; inconclusive = small, poorly fitted or top-dose-only effect; inactive = flat fitted curve, though single readings scatter. Potencies beside an inconclusive call are fits to weak or partial responses and may not hold up.

By UniProt entry, the sequences of proteins in these tests, tags left out.
UniProt P53350, whole entry, looked up: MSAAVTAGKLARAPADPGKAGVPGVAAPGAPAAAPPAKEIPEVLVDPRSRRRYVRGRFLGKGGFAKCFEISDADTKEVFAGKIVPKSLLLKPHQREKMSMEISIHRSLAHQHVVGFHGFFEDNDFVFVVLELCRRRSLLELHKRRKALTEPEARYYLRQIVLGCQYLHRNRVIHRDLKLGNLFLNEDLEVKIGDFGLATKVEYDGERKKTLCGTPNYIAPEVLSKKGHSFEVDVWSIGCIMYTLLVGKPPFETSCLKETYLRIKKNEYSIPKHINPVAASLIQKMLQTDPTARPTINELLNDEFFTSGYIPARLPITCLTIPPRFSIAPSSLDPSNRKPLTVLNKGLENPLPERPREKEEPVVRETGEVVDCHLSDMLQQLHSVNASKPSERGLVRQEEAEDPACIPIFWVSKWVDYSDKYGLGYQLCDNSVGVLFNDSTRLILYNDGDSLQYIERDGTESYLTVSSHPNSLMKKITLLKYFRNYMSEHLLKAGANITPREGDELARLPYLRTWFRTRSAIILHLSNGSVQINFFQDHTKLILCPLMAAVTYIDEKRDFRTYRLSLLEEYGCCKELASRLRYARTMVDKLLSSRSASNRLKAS

Target: Serine/threonine-protein kinase PLK1 (Homo sapiens) (UniProt P53350)
Assay: qHTS for Inhibitors of PLK1-PDB (polo-like kinase 1 - polo-box domain): Primary Screen; also: nearly all actives have a fitted effect of over 65% in size; as to max response, negative = inhibition: series mostly up to about 57 µM
Conditions: Plk1 PBD binding of FITC phosphopeptide, fluorescence polarization
% is scaled to controls: 0 for no effect and ±100 for the full control effect; potency is read from the fitted curve at half-maximal effect.

Structure (SMILES)	Potency	max response, negative = inhibition
COc1ccc(-n2nc(C(=O)NCCCN3CCOCC3)c3ccccc3c2=O)c(OC)c1	active: 21.2 µM	–
CCN(CC)CCNC(=O)c1ccc(Cl)c(S(=O)(=O)Nc2ccccc2OC)c1	active: 23.8 µM	–
COC(=O)c1cccc(N2C(=O)C(Cl)=C(N3CCOCC3)C2=O)c1	–	inactive: -12.9%
CN1CCN(C(=O)CSc2nnc(COc3ccccc3)o2)CC1	inconclusive: 33.6 µM [inhibitor, single point]	–
Cc1ccc(-n2nc(-c3ccco3)cc2C(=O)O)cc1	–	inconclusive: -32.3% [inhibitor]
COc1cccc(N2CCN(C(=O)c3ccc(CS(=O)c4ccccc4C)o3)CC2)c1 (centres undefined)	inconclusive: 21.2 µM [inhibitor, single point]	–
O=S(=O)(Nc1ccc(O)c2ccccc12)c1ccc(OC(F)(F)F)cc1	inconclusive: 26.7 µM [inhibitor, single point]	–
CCn1cc(C(=O)O)c(=O)c2cc(F)c(N3CCN(C(=S)NC(=O)c4ccccc4C)CC3)cc21	inconclusive: 75.2 µM [inhibitor, partial curve]	–
Nc1nc2ccccc2cc1C(=O)NCc1cccs1	–	inactive: -8.33%
COc1ccc(C(=O)c2c(C)c(CCC#N)n3ccccc23)c(OC)c1	active: 29.9 µM	–
Cc1c(NC(=O)CN2C(=O)C3C4C=CC(C4)C3C2=O)c(=O)n(-c2ccccc2)n1C (centres undefined)	inconclusive: 26.7 µM [inhibitor, single point]	–
Cn1c(CN2CCCC2)nc2cc(NC(=O)c3cccs3)ccc21	–	inactive: -8.67%
CS(=O)(=O)N1CCN(S(=O)(=O)c2ccccc2[N+](=O)[O-])CC1	inconclusive: 37.7 µM [inhibitor, single point]	–
COc1ccc(Nc2oc(COc3ccccc3F)nc2C#N)cc1	inconclusive: 2.38 µM [inhibitor, full curve, poor fit]	–
COc1ccc([C@H]2CC(=O)C=C(c3ccc(C)c4ccccc34)C2)cc1	inconclusive: 29.9 µM [inhibitor, partial curve]	–
COc1cc2sc3ccc(C#Cc4ccccn4)cc3c(=O)c2cc1OC	–	inactive: -23.2%
COC(=O)CC1C(=O)NCCN1C(=S)NC(=O)c1sc2ccccc2c1Cl (centres undefined)	active: 18.9 µM	–
COc1ccc(-c2cc(-c3ccccc3)c(C#N)c(SCC(=O)O)n2)cc1	inconclusive: 26.7 µM [inhibitor, single point]	–
CCN(Cc1cc(=O)n2ccsc2n1)Cc1nc2cc(OC)c(OC)cc2c(=O)[nH]1	inconclusive: 33.6 µM [inhibitor, single point]	–
N#Cc1cccc(S(=O)(=O)Nc2c(NC3CCCCC3)c3ccccc3oc2=O)c1	inconclusive: 26.7 µM [inhibitor, partial curve]	–
Fc1cccc(-c2csc(-c3ccno3)n2)c1	inconclusive: 18.9 µM [inhibitor, partial curve]	–
O=C(O)C(CO)(c1ccccc1)c1ccccc1	inconclusive: 26.7 µM [inhibitor, single point]	–

Structure (SMILES)	Potency	max response, negative = inhibition
Cc1ccc(NC(=O)CS(=O)CC(=O)Nc2ccccc2-c2ccc(C)o2)cc1 (centres undefined)	inconclusive: 26.7 µM [inhibitor, partial curve]	–
COC(=O)c1ccc(N2CCN(C)CC2)c(NC(=O)COc2ccc(C)cc2)c1	–	inactive: -16%
O=C(O)c1ccc(N/N=C/c2cn(-c3ccccc3)nc2-c2cccs2)cc1	inconclusive: 21.2 µM [inhibitor, single point]	–
CCOc1ccc(N(CC(=O)Nc2ccccc2Cl)S(C)(=O)=O)cc1	–	inactive: -4.93%
O=C(O)c1cc(NC(=O)c2ccc([N+](=O)[O-])cc2)cc(NC(=O)c2ccc([N+](=O)[O-])cc2)c1	inconclusive: 33.6 µM [inhibitor, partial curve]	–
COc1cccc(C(C2C(=O)CC(C)(C)CC2=O)C2C(=O)CC(C)(C)CC2=O)c1	inconclusive: 26.7 µM [inhibitor, partial curve]	–
O=C(c1ccccc1)c1c2c(cc3sc4ccccc4[n+]13)-c1cccc3cccc-2c13	inconclusive: 3.77 µM [inhibitor, full curve]	–
CC(C)Cn1cnc2c1c(=O)n(CC(=O)Nc1ccc3c(c1)OCO3)c(=O)n2Cc1ccccc1	inconclusive: 11.9 µM [inhibitor, partial curve]	–
Cc1ccc(NC(=O)c2cnn(-c3ccccc3)c2NC(=O)c2ccco2)cc1	active: 3.36 µM	–
CCOc1ccc(NC(=O)C(C)Sc2nnc(C)n2C)cc1 (centres undefined)	inconclusive: 37.7 µM [inhibitor, single point]	–
O=C(CC1(O)C(=O)Nc2ccccc21)c1cccc(Br)c1 (centres undefined)	inconclusive: 33.6 µM [inhibitor, partial curve]	–
COc1cc(C(C)=O)ccc1OC(=O)c1cc2cccc(OC)c2oc1=O	inconclusive: 29.9 µM [inhibitor, single point]	–
CCOC(=O)C1CCN(C(c2ccccn2)c2c(C)[nH]c3ccccc23)CC1 (centres undefined)	active: 11.9 µM	–
COCC(C)NC(=S)Nc1ccccc1[N+](=O)[O-] (centres undefined)	inconclusive: 6.7 µM [inhibitor, partial curve]	–
Cc1cc(C)nc(Sc2nc(Cl)nc(N(c3ccccc3)c3ccccc3)n2)n1	active: 13.4 µM	–
CCOC(=O)c1c(NC(=O)C2COc3ccccc3O2)sc(C(C)=O)c1C (centres undefined)	inconclusive: 29.9 µM [inhibitor, partial curve]	–
N#Cc1ccsc1NC(=O)COc1ccc(-c2nnco2)cc1	–	inactive: -21.5%
Cc1cc(Br)ccc1SCC(=O)OCC(=O)NCc1ccc2c(c1)OCO2	active: 29.9 µM	–
CCCCOC(=O)Cn1c(=N)n(CCN(CC)CC)c2ccccc21	active: 21.2 µM	–
C/C(=N/Nc1ccc(C(=O)O)cc1)c1ccc2c(c1)Nc1ccccc1S2	active: 29.9 µM	–
O=C(CSc1nccc(=O)[nH]1)NCc1ccco1	inconclusive: 26.7 µM [inhibitor, single point]	–
O=C(Nc1sc2c(c1C(=O)O)CCCC2)C(=O)N1CCOCC1	inconclusive: 29.9 µM [inhibitor, single point]	–

A few values from the entries so far.
Potency, Cc1cc(Br)ccc1SCC(=O)OCC(=O)NCc1ccc2c(c1)OCO2 reads active: 29.9 µM
Potency, CCOC(=O)C1CCN(C(c2ccccn2)c2c(C)[nH]c3ccccc23)CC1 (centres undefined) reads active: 11.9 µM
max response, negative = inhibition, COC(=O)c1ccc(N2CCN(C)CC2)c(NC(=O)COc2ccc(C)cc2)c1 reads inactive: -16%
